## Screening data

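GFP signal from normal-ribosome E. coli grown alongside a humanized-ribosome RFP strain, measured on a plate reader after one day. Percent-style change in GFP activity at 50 µM; values more negative mean stronger inhibition. Active needs green reporter loss at least twice the red loss with limited overall growth inhibition; inconclusive means no clear call.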

Common to all entries: at 50 µM (top of the series). All entries here are filed as inconclusive. Only part of the assay is shown, chiefly results filed as inconclusive.

SMILES	activity change
Cc1c(C(=O)O)oc2ccc(S(=O)(=O)NC3CCCCCCC3)cc12	-3.353
O=C(O)C1CCCCC1C(=O)Nc1ccc(OCc2ccccc2)cc1 (configuration not stated)	-13.32
COc1cccc(OC)c1CNC(=O)CCSCc1ccccc1F	-3.074
Clc1ccc(-c2nc3ccc(Br)cn3c2Cc2ccsc2)cc1	-31.33
Cc1nn(CC(=O)c2ccc(Br)s2)c(C)c1[N+](=O)[O-]	0.984
Cc1cc2nc(-c3ccc4c(c3)CCC4)ccn2n1	-11.04
NC(=O)c1ccsc1NC(=O)COC(=O)CCOc1ccccc1	-41.11
COc1ccc(NC(=O)c2cccc(Oc3ccc([N+](=O)[O-])cc3Cl)c2)cc1	-12.6
O=C(O)CCCCCCCCc1cn(CC2CCCCC2)nn1	-1.012
CN(c1cccc(NC(=O)c2ccc(CN3CCc4ccccc4C3)cc2)c1)S(C)(=O)=O	-20.83
O=C(N[C@H]1CC1c1ccccc1)c1ccc([N+](=O)[O-])cc1 (some centres not stated)	-5.496
COc1cc(C(=O)NCCc2c[nH]c3ccccc23)ccc1OCc1c(C)noc1C	-18.58
CC1=Nc2cc(C(=O)NCC3CCCO3)ccc2Sc2ccc(Br)cc21 (configuration not stated)	-30.59
COc1ccc(NC(=O)CN(C)C(=O)c2cc(C3CC3)nn2-c2ccccc2)cc1	-22.25
CC1(C)c2ccccc2C(=O)c2ccccc21	-32.06
Cc1ccc(NC(=O)c2c(C)noc2-c2snnc2C)cc1	-27.86
Cc1cccc(OCCn2c(=O)oc3ccc(C)cc32)c1	-2.78
O=C1CCCc2ccccc2N1Cc1ccccc1	-6.559
CN(C(=O)COC(=O)CSc1ccc(C(N)=O)cc1[N+](=O)[O-])C1CCCCC1	15.09
COc1ccc(NC(=O)CSc2n[nH]c(-c3ccncc3)n2)c([N+](=O)[O-])c1	2.234
CSc1ccc(CN2CCN(Cc3ccccc3Cl)CC2)cc1	-27.74
Cc1ccc(C#CC[N+](C)(C)CC#Cc2ccccc2)cc1	-36.19
COc1ccccc1NC(=O)CSc1nccn1Cc1ccc(F)cc1	-10.69
O=C(CN1CCCCC1)Nc1ccccc1-c1ccccc1	-12.53
COc1ccc(C2CC(=O)Oc3cc(C)cc(C)c32)cc1 (configuration not stated)	-16.8
CC(=O)c1cccc(NC(=O)COC(=O)CCC(=O)c2ccc(F)cc2)c1	-19.17
O=C(Nc1ccc(S(=O)(=O)N2CCOCC2)cc1)c1ccc([N+](=O)[O-])o1	-32.45
CC(C(=O)Nc1nc2ccccc2s1)n1cc([N+](=O)[O-])cn1 (configuration not stated)	-12.71
Cc1occc1C(=O)Nc1ccc2c(c1)CCC2	-15.8
Cc1ccc(NC(=O)c2ccc3ncsc3c2)cc1S(=O)(=O)N(C)C	-21.82
COC(=O)CN1C(=S)N(c2ccc(F)cc2)C(=O)C1CC(=O)Nc1ccc(F)cc1 (configuration not stated)	-3.083
CC(C)C1C(c2ccccc2)N(C)C(c2ccccc2)CC1(O)c1ccccc1 (configuration not stated)	-5.037
CC1CCC(C(C)C)C(OCC(O)CN2CCCC(C)C2)C1 (configuration not stated)	-16.26
OCCN(Cc1ccccc1)Cc1ccc(F)c(F)c1	-6.596
Cc1ccc(NC(=O)c2ccc([N+](=O)[O-])o2)cc1S(=O)(=O)N1CCOCC1	-34.76
O=[N+]([O-])c1ccc2c(c1)S(=O)c1ccccc1-2 (configuration not stated)	28.57
Cn1cc(CN2CCCC(C(=O)Nc3cccc(-c4cc5ccccc5[nH]4)c3)C2)cn1 (configuration not stated)	-21.57
CC(=O)Oc1ccc(N(C(C)=O)S(=O)(=O)c2ccc(Cl)cc2)c2ccccc12	-12.09
Cc1ccc(-n2nnnc2SCC(=O)NC2CCCc3ccccc32)cc1 (configuration not stated)	-28.43
COc1ccc(-n2nc3cc(N)c(Br)cc3n2)cc1	0.05
COC(=O)c1sccc1NC(=O)Cc1ccc(OC)cc1	-27.24
Cc1cc(NC(=O)c2cccc(Oc3ccccc3)c2)n[nH]1	-37.95
O=S(=O)(NOCc1ccc(Cl)cc1)c1ccc(Cl)cc1	-24.34
O=C(Nc1ccc(C(=O)N2CCOCC2)cc1)C1CCCC1	52.07
COC(=O)c1cc2c(c3c4cc(F)ccc4n(S(=O)(=O)c4cccc(C)c4)c13)C(=O)N(Cc1ccco1)C2	11.88
Cc1cc(C)nc(SCc2cn3c(C)cccc3n2)n1	-37.28
O=C(c1sc2ccccc2c1Cl)N1CCC2(CC1)OCCO2	-10.5
CC(C)CCn1c(N)c(C(=O)NCc2cccs2)c2nc3ccccc3nc21	24.84
O=C(NCCc1ccc(Cl)cc1)c1ccc2nc[nH]c2c1	-16.8
CN(CC(=O)Nc1ccc(S(=O)(=O)N2CCCC2)cc1)CC(=O)Nc1ccc(F)c(F)c1F	15.63
c1ccc(CNc2ncnc3sccc23)cc1	-24.09
CCc1ccc2nc(N(CCCN(C)C)C(=O)c3ccc4c(c3)OCCO4)sc2c1	-23.48
CSCCC1NC(=O)N(C(C)C(=O)Nc2cc(Cl)cc(Cl)c2)C1=O (configuration not stated)	-24.63
CCCN1CCN(C(=O)c2ccc(Sc3ccc(C)cc3)c(NC(C)=O)c2)CC1	16.89
COc1ccc(Nc2nc(NCCO)nc(N3CCCC3)n2)cc1	14.93
COc1ccc(/C=C(\CC(=O)O)c2nc3ccccc3s2)cc1O	-44.25
Cc1cccc(C)c1OCc1n[nH]c(=S)n1-c1ccccc1	-14.8
c1ccc(Nc2ccc3ccccc3c2)cc1	-4.692
O=C(Cc1coc2ccc3ccccc3c12)NCc1ccccc1	-12.36
O=C(Cn1cnc2ccccc21)c1ccc(Br)cc1	-13.48
CC(=O)Nc1cccc(NC(=O)c2c(-c3c(Cl)cccc3Cl)noc2C)c1	2.526
Oc1ccccc1Oc1ncc(Br)c(Cl)n1	17.36
COc1ccc(C2=Nc3ccccc3NC(=O)C2N(C(=O)c2ccnc3ccccc23)c2ccccc2)cc1 (configuration not stated)	-6.801
CCC1=Nc2cc(C(=O)NCc3cccnc3)ccc2Sc2ccc(C)cc21	-26.61
O=C(COC(=O)C12CC3CC(CC(O)(C3)C1)C2)NCCc1ccc(Cl)cc1	-6.715
O=C(CSc1ccncc1)Nc1ccc2ccccc2c1	-11.01
Nc1nc(-c2cc(-c3ccccc3)no2)cs1	-5.577
CCOC(=O)c1cnc2c(c(C)nn2C)c1Oc1ccc(OC)cc1	-5.876
O=C(c1ccc(Cl)cc1)N1CCN(c2cccc3[nH]ccc23)CC1	-21.41
CCCn1c(C(C)Nc2nc(-c3ccc(C)cc3)cs2)nc2ccccc21 (configuration not stated)	-27.96
CCOC(=O)CN1C(=O)C(CC)Oc2ccc(Cl)cc21 (configuration not stated)	4.588
COc1ccccc1NS(=O)(=O)c1cc(NC(=O)CNC(=O)c2ccccc2)ccc1C	-36.3
CCn1nc(Cc2cccc3ccccc23)c(C#N)c1N	-23.14
CCOc1ccc(NS(=O)(=O)c2ccc(C(=O)N3CCN(c4ncccn4)CC3)cc2)cc1	11.06
O=C1C(c2ccccc2)c2ccccc2N1Cc1ccccc1 (configuration not stated)	-44.28
CCCn1c(NCc2ccc3c(c2)OCO3)nc2ccccc21	-20.83
CSc1ccccc1OCc1cc(C(=O)N(C)Cc2nonc2C)no1	-24.58
COc1cc(-c2ccc(N3C(c4ccsc4)=Cc4ccc(F)cc4C3c3c[nH]c4ccc(C#N)cc34)cc2)cc(OC)c1OC (configuration not stated)	32.27
NC(=O)CSc1nc2cc([N+](=O)[O-])ccc2n1-c1cccc(C(F)(F)F)c1	-32
O=C(Cc1ccccc1Cl)Nc1nc2ccccc2[nH]1	-11.97
O=C(Nc1ccc2nc(-c3ccccc3)[nH]c2c1)c1cccs1	-33.09
O=C(Nc1ccncc1)c1ccc(S(=O)(=O)Nc2ccccc2)cc1	-26.83
O=C(O)c1cc(S(=O)(=O)N2CCN(C(c3ccccc3)c3ccccc3)CC2)ccc1Cl	-14.23
O=C(COC(=O)CCSc1ccc(F)cc1)NCc1ccc(F)cc1	4.361
CC(C)CNC(=O)c1cccc(NC(=O)C(C)Oc2ccccc2)c1 (configuration not stated)	-15.14
Cc1cc(C(=O)COC(=O)c2ccc(O)cc2)c(C)n1CC(F)(F)F	-36.03
CCOc1ccc2oc(C(=O)NC3CCN(Cc4ccccc4)CC3)c(C)c2c1	-20.02
Nc1ccc2nc(-c3ccc(Cl)cc3)[nH]c2c1	1.362
Clc1ccc(-c2cn(-c3ccccc3)c3[n+]2CCS3)cc1	-2.252
CCc1cc(CN2CCOCC2)c(NC(=O)c2ccccc2)s1	-2.784
O=C(CN(CCO)c1ccccc1)Nc1cccc(S(=O)(=O)N2CCCC2)c1	-2.857
CC1(CCC(=O)N2CCCC(N3CCN(c4ccc(F)cc4)CC3)C2)CC1 (configuration not stated)	-6.621
c1ccc(-c2sc3ccccc3c2-c2ccc(OCCN3CCCCC3)cc2)cc1	-0.084
COc1ccc(OCC2c3cc(OC)c(OC)cc3CCN2C(=O)C(C)C)cc1 (configuration not stated)	-6.084

Some entries from above, unchanged:

Result for CCOC(=O)CN1C(=O)C(CC)Oc2ccc(Cl)cc21 (configuration not stated) was activity change 4.588.
Result for O=[N+]([O-])c1ccc2c(c1)S(=O)c1ccccc1-2 (configuration not stated) was activity change 28.57.
Result for COc1ccccc1NC(=O)CSc1nccn1Cc1ccc(F)cc1 was activity change -10.69.
Result for COc1ccc(NC(=O)CN(C)C(=O)c2cc(C3CC3)nn2-c2ccccc2)cc1 was activity change -22.25.
Result for COC(=O)c1sccc1NC(=O)Cc1ccc(OC)cc1 was activity change -27.24.
Result for Oc1ccccc1Oc1ncc(Br)c(Cl)n1 was activity change 17.36.
Result for CC(=O)Oc1ccc(N(C(C)=O)S(=O)(=O)c2ccc(Cl)cc2)c2ccccc12 was activity change -12.09.
Result for CN(c1cccc(NC(=O)c2ccc(CN3CCc4ccccc4C3)cc2)c1)S(C)(=O)=O was activity change -20.83.

Source: PubChem BioAssay AID977630 (Broad Institute, 2014).